Some results were stated once for a whole list of compounds, not compound by compound.
Tested on: primary bovine articular chondrocytes
Assay: In vitro MTT cytotoxicity assay
Assay type: cell-based
Details: 50 μM; 20 hours incubation + 4 hours MTT
Description: The evaluation of cytotoxicity of compounds by in vitro methods allows one to establish criteria which allow rank ordering among compounds. These methods assess cell permeability, release of cytosolic enzymes, and oxidative potential of cells. The use of tetrazolium dyes to assess cytotoxicity has been established in the area of oncology, where such assays were developed to assess the cytotoxic potential of various chemotherapeutic agents. We have adapted the use of the MTT (3-(4,5-dimethylthiazol-2-yl)-2,5-diphenyl tetrazolium bromide) in an assay using primary bovine articular chondrocytes. The procedure for this assay is given below.
Chondrocytes are isolated from bovine calf radio-carpal joints as described in Example 1. Cells are plated in two 96-well plates at 4×10^4 cells per well, in DMEM/F12 media supplemented with 10% fetal bovine serum. The cultures are refed on days 4, 7, 11, 14, 18, 21 and 24. On day 27, the cells are rinsed with PBS, and incubated for 20 hours with 0.2 ml/well of serum-free DMEM/F12 plus 0.1% DMSO, and the test compounds. Genistein (50 μM), Herbimycin (10 μM) and Staurosporine (1 μM) were each used as test compounds. […] The 96-well plate is then read in a microplate reader at 560 nm, with subtraction of absorbance at 750 nm to account for cell debris.

## O=c1c(-c2ccc(O)cc2)coc2cc(O)cc(O)c12 [Genistein]
  cytotoxicity, reduction of MTT dye: < 50%
